Results as given in PMC11032371.
No constants are given. Whether binding was seen depends on the method and setting. Binding seen in cells or lysates may run through a third protein. Some entries that bind do so weakly or less than the wild type.

Target: T1, endogenous FADD (mouse (endogenous in MEFs)) (UniProt Q61160)
T1 sequence: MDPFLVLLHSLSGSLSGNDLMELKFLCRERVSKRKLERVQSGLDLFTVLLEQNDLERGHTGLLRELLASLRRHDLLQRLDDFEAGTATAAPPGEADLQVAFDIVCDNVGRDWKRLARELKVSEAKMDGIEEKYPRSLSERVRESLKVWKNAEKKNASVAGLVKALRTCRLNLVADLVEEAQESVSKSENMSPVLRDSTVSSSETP
Test: co-IP; endogenous FADD immunoprecipitated from MEFs untreated or exposed to TNFα (10 ng/ml) and CHX (0.5 μg/ml) without or with z-VAD-fmk (20 μM) for 90 min

binding: binds
B1: endogenous mouse N4BP1 (protein, UniProt Q6A037 1-893)
chain: MAARVVLDEFTAPAEKAALLERSRGRIEALFGVGLAVLGALGAEEPLPARIWLQLRGAQEAVHSAKEYIKGICEPELEEKECYPKAMHCIFVGAQSLFLKSLIQDTCADLCVLDTGLLGIRGSAEAVVMARSHIQQFVKLFESNENLPSNQRESEIKREFRQFVEAHADSYTMDLLILPTSLKKELLSLTQGEESLFETDDDVITVGDVRPPEYTQSAATGPSSARDEVVVQEDSRNKARTPVSELTKHMDTVFSSSPDVLFVPVNGLSPDEDALSKDRVCHKRRSSDTEERHTKKQFSLENVPEGELLPDGKGSAGNEVIDLSDPASNSTNLSPDGKDTTEEMEYNILVNFFKTMGYSQEIVEKVIREYGPSTEPLLLLEEIEKENKRLQEDRDFPPCTVYPDASQSRNAGVGSTTNELTADSTPKKAQSHTEQSMVERFSQLPFKDSKHCTSNCKVNSFRTVPVGQKQEIWGSKQNSSCTVDLETDGHSASAASASPKDISFVSRGASGHQQRNPAFPENGFQQQTEPLLPNNTKPACEKRSGSCSSPQPKPNYPPLSPPLPLPQLLPSVTEARLGGSSDHIDSSVTGVQRFRDTLKIPYKLELKNEPGRADLKHIVIDGSNVAITHGLKKFFSCRGIAIAVEYFWKLGNRNITVFVPQWRTRRDPNITEQHFLTQLQELGILSLTPARMVFGERIASHDDRFLLHLADKTGGIIVTNDNFREFVTESVSWREIITKRLLQYTFVGDIFMVPDDPLGRNGPRLEEFLRKEAFLRHMQPLLNALPSVGTFDPGFRSPSTQVANNSHQPPPRIQTSSSPWLPQQSHFTALATLPSMQQNPPLPAQRSSAETSELREALLKIFPDSEQKLKIDQILAAHPYMKDLNALSALVLD
